Source: PMC10879859
Substitutions are numbered along the chain they refer to. No constants are given. Whether binding was seen depends on the method and setting. Binding seen in cells or lysates may run through a third protein. Some entries that bind do so weakly or less than the wild type. For some assays here: Sequences can lack the tags named with a protein.

Sequences of proteins named here, by UniProt entry; tags and fusion partners are left off. A change or cut given only in a name is not applied to a line headed by its entry. Residues count along the entry.
UniProt P29144: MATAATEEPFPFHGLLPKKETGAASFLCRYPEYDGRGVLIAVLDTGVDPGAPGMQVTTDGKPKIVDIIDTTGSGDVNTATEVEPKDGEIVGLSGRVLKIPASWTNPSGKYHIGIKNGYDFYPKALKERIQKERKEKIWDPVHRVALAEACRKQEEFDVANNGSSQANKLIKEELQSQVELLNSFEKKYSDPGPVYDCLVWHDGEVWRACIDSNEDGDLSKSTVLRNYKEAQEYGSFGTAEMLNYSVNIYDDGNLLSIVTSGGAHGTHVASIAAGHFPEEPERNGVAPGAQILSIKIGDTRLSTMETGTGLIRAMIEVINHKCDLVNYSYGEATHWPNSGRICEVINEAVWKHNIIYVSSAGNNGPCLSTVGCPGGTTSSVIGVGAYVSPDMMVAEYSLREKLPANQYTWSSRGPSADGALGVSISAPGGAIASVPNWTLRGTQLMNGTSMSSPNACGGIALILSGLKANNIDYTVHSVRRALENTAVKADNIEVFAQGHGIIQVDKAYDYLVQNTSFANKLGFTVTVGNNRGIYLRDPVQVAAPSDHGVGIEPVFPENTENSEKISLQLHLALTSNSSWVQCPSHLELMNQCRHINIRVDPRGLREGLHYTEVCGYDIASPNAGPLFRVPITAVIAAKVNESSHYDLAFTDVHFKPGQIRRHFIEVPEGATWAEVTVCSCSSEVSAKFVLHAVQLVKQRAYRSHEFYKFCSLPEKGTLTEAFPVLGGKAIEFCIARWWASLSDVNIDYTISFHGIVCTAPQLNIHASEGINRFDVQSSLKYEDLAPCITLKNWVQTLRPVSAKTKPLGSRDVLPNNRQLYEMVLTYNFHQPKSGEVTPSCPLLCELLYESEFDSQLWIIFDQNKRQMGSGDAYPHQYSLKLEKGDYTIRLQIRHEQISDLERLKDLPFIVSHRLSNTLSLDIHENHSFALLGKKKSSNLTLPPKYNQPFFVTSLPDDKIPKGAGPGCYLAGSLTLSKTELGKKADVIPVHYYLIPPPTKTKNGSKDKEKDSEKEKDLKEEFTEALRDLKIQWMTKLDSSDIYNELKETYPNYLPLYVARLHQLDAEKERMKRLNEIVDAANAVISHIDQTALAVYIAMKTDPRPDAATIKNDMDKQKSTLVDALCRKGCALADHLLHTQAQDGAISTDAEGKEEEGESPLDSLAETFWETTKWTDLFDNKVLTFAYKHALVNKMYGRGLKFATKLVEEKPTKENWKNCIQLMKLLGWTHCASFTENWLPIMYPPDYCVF
truncated TPP2 mutant with deletion of its conserved C domain (AA 508-1249): residues 1-507 of P29144
UniProt F6VAN0: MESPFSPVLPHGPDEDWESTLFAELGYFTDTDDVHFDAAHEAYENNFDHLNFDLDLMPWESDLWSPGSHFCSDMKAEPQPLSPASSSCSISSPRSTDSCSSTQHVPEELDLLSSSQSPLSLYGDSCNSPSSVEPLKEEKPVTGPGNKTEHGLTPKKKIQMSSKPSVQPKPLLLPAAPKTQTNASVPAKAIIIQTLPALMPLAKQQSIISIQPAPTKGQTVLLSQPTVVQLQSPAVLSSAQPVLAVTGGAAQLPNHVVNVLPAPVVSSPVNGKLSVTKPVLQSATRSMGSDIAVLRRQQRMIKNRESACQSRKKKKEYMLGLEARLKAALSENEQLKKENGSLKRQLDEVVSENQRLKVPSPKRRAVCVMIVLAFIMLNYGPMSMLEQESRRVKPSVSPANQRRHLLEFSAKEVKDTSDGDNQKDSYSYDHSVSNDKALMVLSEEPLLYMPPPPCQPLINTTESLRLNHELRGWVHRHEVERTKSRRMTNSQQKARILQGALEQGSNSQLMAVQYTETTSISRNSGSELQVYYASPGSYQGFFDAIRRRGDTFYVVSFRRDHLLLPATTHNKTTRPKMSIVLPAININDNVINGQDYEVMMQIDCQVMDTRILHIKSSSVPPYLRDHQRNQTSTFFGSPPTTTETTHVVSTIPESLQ
UniProt P18850: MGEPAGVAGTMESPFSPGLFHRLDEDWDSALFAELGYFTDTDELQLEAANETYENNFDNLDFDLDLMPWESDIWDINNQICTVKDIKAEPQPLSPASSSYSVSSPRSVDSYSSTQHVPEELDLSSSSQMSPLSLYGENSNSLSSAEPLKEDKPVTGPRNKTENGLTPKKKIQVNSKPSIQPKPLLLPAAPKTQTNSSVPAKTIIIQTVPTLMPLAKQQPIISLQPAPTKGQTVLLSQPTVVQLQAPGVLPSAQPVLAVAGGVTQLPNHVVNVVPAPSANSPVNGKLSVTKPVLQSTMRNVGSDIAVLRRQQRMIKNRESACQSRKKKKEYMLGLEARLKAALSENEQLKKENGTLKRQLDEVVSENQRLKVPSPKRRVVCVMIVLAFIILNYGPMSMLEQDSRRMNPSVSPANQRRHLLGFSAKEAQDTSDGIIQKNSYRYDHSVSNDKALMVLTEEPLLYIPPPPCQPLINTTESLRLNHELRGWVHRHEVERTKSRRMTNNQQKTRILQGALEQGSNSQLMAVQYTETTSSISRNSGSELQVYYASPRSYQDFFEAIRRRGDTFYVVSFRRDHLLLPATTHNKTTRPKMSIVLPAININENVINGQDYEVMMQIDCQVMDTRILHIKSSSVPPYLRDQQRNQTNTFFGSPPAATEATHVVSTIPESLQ
UniProt Q9EQY0, residues 21-977: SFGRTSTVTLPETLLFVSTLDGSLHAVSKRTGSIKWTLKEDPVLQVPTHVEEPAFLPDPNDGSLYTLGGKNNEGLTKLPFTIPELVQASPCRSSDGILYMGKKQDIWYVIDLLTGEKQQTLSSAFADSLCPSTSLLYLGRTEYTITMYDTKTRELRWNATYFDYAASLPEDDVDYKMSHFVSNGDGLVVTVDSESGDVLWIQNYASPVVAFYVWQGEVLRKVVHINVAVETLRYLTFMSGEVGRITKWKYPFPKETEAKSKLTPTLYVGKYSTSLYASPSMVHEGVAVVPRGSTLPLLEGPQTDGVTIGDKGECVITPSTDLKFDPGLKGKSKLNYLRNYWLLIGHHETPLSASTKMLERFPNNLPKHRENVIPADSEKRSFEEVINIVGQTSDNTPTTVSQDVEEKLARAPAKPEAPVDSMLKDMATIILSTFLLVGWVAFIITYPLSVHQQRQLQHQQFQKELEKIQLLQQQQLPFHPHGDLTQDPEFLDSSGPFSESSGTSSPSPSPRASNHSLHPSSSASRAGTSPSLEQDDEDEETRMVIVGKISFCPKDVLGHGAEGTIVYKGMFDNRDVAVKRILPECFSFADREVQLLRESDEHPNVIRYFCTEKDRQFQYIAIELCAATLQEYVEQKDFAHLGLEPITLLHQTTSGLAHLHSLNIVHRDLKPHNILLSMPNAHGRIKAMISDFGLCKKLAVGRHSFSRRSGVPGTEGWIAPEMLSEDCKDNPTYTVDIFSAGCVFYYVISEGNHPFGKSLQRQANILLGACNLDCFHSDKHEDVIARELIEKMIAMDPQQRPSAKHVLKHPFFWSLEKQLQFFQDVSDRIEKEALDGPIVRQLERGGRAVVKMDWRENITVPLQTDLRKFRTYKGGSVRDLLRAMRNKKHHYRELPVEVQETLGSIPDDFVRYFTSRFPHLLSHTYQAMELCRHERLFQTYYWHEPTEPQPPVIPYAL
UniProt O14983: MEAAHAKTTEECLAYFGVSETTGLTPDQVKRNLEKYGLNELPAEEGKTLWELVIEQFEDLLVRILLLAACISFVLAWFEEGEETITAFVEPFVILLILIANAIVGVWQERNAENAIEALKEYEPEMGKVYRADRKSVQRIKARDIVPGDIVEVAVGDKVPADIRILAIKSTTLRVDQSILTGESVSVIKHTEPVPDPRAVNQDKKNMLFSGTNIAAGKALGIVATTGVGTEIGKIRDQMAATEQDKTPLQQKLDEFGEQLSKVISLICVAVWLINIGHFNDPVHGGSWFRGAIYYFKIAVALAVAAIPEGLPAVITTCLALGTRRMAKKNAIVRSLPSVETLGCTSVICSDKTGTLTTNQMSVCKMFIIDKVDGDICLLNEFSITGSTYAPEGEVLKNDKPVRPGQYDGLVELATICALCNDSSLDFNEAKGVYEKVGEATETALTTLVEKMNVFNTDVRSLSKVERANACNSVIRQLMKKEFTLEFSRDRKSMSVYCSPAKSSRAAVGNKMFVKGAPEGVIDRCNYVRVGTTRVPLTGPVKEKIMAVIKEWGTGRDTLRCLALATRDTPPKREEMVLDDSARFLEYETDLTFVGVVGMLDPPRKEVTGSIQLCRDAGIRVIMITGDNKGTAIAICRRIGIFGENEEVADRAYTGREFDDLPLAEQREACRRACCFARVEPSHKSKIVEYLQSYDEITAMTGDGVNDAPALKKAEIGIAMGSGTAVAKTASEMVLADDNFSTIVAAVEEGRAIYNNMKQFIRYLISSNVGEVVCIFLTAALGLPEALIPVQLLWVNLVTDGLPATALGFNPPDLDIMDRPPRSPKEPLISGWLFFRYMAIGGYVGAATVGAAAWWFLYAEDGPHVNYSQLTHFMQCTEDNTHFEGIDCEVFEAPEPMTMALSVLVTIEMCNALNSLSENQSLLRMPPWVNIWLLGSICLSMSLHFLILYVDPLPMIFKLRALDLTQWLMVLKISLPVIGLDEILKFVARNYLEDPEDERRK
UniProt Q15629: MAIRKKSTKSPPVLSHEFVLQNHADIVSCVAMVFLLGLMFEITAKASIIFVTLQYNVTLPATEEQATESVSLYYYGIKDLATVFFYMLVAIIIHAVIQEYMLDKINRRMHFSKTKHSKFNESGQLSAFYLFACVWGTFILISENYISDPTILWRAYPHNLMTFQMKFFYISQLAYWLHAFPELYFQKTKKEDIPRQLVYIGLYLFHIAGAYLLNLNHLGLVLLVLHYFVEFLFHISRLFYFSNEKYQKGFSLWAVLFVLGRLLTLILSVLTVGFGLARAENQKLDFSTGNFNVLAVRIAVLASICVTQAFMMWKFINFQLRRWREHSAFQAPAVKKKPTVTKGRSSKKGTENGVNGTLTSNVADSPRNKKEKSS
UniProt Q86TM6: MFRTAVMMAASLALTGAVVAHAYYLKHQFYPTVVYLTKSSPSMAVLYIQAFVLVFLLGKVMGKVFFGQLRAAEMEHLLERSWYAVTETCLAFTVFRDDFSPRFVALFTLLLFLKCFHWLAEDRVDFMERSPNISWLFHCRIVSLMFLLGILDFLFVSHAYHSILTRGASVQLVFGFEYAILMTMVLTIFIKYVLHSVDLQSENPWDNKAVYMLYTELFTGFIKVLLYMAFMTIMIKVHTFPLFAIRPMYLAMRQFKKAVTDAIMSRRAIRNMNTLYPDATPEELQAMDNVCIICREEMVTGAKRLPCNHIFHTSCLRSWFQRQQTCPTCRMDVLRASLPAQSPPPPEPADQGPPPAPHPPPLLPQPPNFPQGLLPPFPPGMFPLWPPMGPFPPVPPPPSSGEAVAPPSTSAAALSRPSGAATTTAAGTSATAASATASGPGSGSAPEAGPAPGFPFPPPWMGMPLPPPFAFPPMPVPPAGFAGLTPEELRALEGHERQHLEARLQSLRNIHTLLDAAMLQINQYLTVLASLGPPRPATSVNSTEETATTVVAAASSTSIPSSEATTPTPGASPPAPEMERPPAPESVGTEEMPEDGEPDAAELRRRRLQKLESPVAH
UniProt O75460, residues 19-977: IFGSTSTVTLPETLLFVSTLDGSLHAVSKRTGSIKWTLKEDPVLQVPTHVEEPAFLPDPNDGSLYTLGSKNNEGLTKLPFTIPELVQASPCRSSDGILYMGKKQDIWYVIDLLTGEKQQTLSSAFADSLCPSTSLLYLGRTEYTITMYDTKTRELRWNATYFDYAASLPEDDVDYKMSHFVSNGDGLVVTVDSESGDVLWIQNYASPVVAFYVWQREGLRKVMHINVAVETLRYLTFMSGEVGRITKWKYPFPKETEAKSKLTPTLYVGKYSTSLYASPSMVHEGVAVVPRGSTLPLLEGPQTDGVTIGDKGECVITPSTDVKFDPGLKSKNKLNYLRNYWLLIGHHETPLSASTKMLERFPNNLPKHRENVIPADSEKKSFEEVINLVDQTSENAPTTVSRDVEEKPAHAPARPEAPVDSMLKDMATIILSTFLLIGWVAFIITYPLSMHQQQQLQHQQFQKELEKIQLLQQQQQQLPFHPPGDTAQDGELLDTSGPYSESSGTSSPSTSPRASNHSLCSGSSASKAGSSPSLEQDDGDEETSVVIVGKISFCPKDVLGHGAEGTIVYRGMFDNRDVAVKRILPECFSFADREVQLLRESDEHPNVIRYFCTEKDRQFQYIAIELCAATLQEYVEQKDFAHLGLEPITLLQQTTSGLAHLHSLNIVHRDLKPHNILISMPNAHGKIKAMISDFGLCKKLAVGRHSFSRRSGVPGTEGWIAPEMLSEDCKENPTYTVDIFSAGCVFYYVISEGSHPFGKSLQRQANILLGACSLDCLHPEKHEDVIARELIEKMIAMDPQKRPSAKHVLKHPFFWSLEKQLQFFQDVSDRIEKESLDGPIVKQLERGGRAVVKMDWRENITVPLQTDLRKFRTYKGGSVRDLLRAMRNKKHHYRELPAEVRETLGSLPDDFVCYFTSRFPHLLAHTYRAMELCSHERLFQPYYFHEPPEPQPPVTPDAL

Columns and labels:
[1] = molecular target: T1, rat CYP19A1-Flag (aromatase) (rat) (UniProt P22443); experiment: proximity ligation; Duolink in situ PLA of aromatase with UPS-related or autophagy-related proteins in WT and TPP2 knockout 293T cells
T1 sequence: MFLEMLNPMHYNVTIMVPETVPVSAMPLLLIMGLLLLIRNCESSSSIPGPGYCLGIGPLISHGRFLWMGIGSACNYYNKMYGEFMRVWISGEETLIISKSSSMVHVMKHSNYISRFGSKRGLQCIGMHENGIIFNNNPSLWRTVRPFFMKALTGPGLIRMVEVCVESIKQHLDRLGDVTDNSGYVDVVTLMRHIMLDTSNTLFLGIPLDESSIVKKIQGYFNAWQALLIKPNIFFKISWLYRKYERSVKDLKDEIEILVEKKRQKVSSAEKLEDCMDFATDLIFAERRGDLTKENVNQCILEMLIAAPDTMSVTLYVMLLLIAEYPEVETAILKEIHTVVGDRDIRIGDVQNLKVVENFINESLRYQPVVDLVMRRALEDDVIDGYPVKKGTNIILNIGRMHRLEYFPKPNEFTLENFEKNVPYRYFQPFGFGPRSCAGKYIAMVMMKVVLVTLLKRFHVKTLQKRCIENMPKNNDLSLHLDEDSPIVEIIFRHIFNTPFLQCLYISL

[2] = molecular target: Tripeptidyl peptidase II (TPP2), mouse (mouse (endogenous in hippocampal neurons and hippocampus)) (UniProt Q64514); experiment: co-IP; co-IP with immunoblot from mouse hippocampus (P30) homogenate; same lysis buffer; antibody on protein G agarose, 2 h at 4°C
[3] = molecular target: inositol 1,4,5-triphosphate receptor (IP3R1), mouse (mouse (endogenous in hippocampal neurons and hippocampus)) (UniProt P11881); experiment: proximity ligation; Duolink in situ PLA on DIV10 mouse primary hippocampal neurons, endogenous proteins; wild-type neurons, female shown, with TPP2 knockout and male neurons as comparisons
[4] = molecular target: sarcoendoplasmic reticulum Ca^2+ ATPase (SERCA1), mouse (mouse (endogenous in hippocampal neurons and hippocampus)) (UniProt Q8R429); experiment: as above
[5] = molecular target: Tripeptidyl peptidase II (TPP2), mouse (mouse (endogenous in hippocampal neurons and hippocampus)) (UniProt Q64514); experiment: as above
[6] = molecular target: TPP2 S449A (ectopically expressed in TPP2 knockout mouse hippocampal neurons) (UniProt P29144); experiment: proximity ligation; Duolink in situ PLA on TPP2 knockout mouse hippocampal neurons ectopically expressing TPP2 S449A, S449T or the C terminal domain-deleted mutant
[7] = molecular target: TPP2 S449T (ectopically expressed in TPP2 knockout mouse hippocampal neurons) (UniProt P29144); experiment: as above
[8] = molecular target: truncated TPP2 mutant with deletion of its conserved C domain (AA 508-1249) (UniProt P29144); experiment: as above
[9] = molecular target: TPP2 S449T (stably expressed in TPP2 knockout 293T cells) (UniProt P29144); experiment: co-IP; co-IP with immunoblot from 293T cell lysates (wild-type cells and TPP2 knockout clones expressing TPP2 S449A or S449T); lysis buffer 50 mM Tris-HCl pH 7.4, 1% Triton X-100, 1% n-octyl β-D-glucopyranoside, 0.1% SDS, 1 mM EDTA, 150 mM NaCl; antibody on protein G agarose, 2 h at 4°C
[10] = molecular target: Tripeptidyl peptidase II (TPP2) (human (endogenous in 293T)) (UniProt P29144); experiment: as above
[11] = molecular target: TPP2 S449A (stably expressed in TPP2 knockout 293T cells) (UniProt P29144); experiment: as above
[12] = molecular target: Tripeptidyl peptidase II (TPP2) (human (endogenous in 293T)) (UniProt P29144); experiment: proximity ligation; Duolink in situ PLA on fixed, permeabilised 293T cells, endogenous proteins; wild-type cells, with TPP2-, ATF6-, IRE1-, PERK- or CEPT1-knockout cells and TG, XeC, PC or CCTα-KDEL treatments as comparisons
[13] = molecular target: Activating transcription factor 6 (ATF6), mouse (mouse (endogenous in hippocampal neurons and hippocampus)) (UniProt F6VAN0); experiment: co-IP; co-IP of ATF6 with immunoblot, female mouse hippocampus, WT and TPP2 knockout (p62, SEL1L and aromatase only in TPP2 knockout)
[14] = molecular target: Activating transcription factor 6 (ATF6), mouse (mouse (endogenous in hippocampal neurons and hippocampus)) (UniProt F6VAN0); experiment: condition: only in wild-type female mouse hippocampus (TPP2 present); co-IP; co-IP of ATF6 with immunoblot, wild-type female mouse hippocampus (TPP2 present)
[15] = molecular target: T1, rat CYP19A1-Flag (aromatase) (rat); experiment: condition: only in TPP2/ATF6 double knockout 293T cells; proximity ligation; Duolink in situ PLA of aromatase in TPP2/ATF6 double knockout 293T cells
[16] = molecular target: T2, rat CYP19A1 S118A-Flag (rat) (UniProt P22443); experiment: proximity ligation; Duolink in situ PLA on TPP2 knockout 293T cells 24h after transfection with CYP19A1-FLAG or CYP19A1-S118A-FLAG expressing vector
T2 sequence: T1 sequence with S118A

[17] = molecular target: T1, rat CYP19A1-Flag (aromatase) (rat); experiment: as above
[18] = molecular target: Activating transcription factor 6 (ATF6) (human (endogenous in 293T)) (UniProt P18850); experiment: co-IP; co-IP of ATF6 with immunoblot, WT and TPP2 knockout 293T cells 48h after transfection with CYP19A1-FLAG expressing vector (p62 only in TPP2 knockout cells)
[19] = molecular target: T1, rat CYP19A1-Flag (aromatase) (rat); experiment: co-IP; co-IP of aromatase with immunoblot, WT and TPP2 knockout 293T cells

proteasome 26S subunit, ATPase 4 (PSMC4) (from UniProt P43686 1-418)
binding [1]: binds

Inositol-requiring enzyme 1 (IRE1), mouse (from UniProt Q9EQY0 21-977)
binding [2]: binds
binding [3]: binds
binding [4]: binds
binding [5]: binds
binding [6]: binds
binding [7]: binds
binding [8]: no binding

sarcoendoplasmic reticulum Ca^2+ ATPase (SERCA1) (from UniProt O14983 1-1001)
binding [9]: binds
binding [10]: binds
binding [11]: binds
binding [12]: binds

sarcoendoplasmic reticulum Ca^2+ ATPase (SERCA1), mouse (from UniProt Q8R429 1-994)
binding [2]: binds
binding [5]: binds
binding [6]: binds
binding [7]: binds
binding [8]: no binding

Activating transcription factor 6 (ATF6) (from UniProt P18850 1-670)
binding [9]: binds
binding [10]: binds
binding [11]: binds
binding [12]: binds

ubiquitin carboxy-terminal hydrolase l1 (UCHL1/PGP 9.5), mouse (from UniProt Q9R0P9 1-223)
binding [13]: binds

suppressor/enhancer of Lin-12-like (SEL1L), mouse (from UniProt Q9Z2G6 22-790)
binding [13]: binds
binding [14]: no binding

valosin-containing protein (VCP/p97) (from UniProt P55072 1-806)
binding [1]: binds
binding [15]: no binding
binding [16]: binds
binding [17]: binds
binding [18]: binds

calreticulin (CALR), mouse (from UniProt P14211 18-416)
binding [3]: binds

family with sequence similarity 134, member B (FAM134B/JK-1/RETREG1) (from UniProt Q9H6L5 1-497)
binding [1]: binds
binding [15]: no binding

inositol 1,4,5-triphosphate receptor (IP3R1), mouse (from UniProt P11881 1-2749)
binding [2]: binds
binding [5]: binds
binding [6]: binds
binding [7]: binds
binding [8]: no binding

translocating chain-associated membrane protein 1 (TRAM1) (from UniProt Q15629 1-374)
binding [1]: binds
binding [19]: binds
binding [15]: no binding

synoviolin (SYVN1/Hrd1) (from UniProt Q86TM6 1-617)
binding [1]: binds
binding [15]: no binding
binding [16]: binds
binding [17]: binds

Inositol-requiring enzyme 1 (IRE1) (from UniProt O75460 19-977)
binding [9]: binds
binding [10]: binds
binding [11]: binds
binding [12]: binds

valosin-containing protein (VCP/p97), mouse (from UniProt Q01853 1-806)
binding [13]: binds

B1: aromatase (CYP19A1), mouse (enzyme, UniProt P28649 1-503)
chain: MFLEMLNPMQYNVTIMVPETVTVSAMPLLLIMGLLLLIWNCESSSSIPGPGYCLGIGPLISHGRFLWMGIGSACNYYNKMYGEFMRVWISGEETLIISKSSSMFHVMKHSHYISRFGSKRGLQCIGMHENGIIFNNNPSLWRTIRPFFMKALTGPGLVRMVEVCVESIKQHLDRLGEVTDTSGYVDVLTLMRHIMLDTSNMLFLGIPLDESAIVKKIQGYFNAWQALLIKPNIFFKISWLYRKYERSVKDLKDEIAVLVEKKRHKVSTAEKLEDCMDFATDLIFAERRGDLTKENVNQCILEMLIAAPDTMSVTLYFMLLLVAEYPEVEAAILKEIHTVVGDRDIKIEDIQNLKVVENFINESMRYQPVVDLVMRRALEDDVIDGYPVKKGTNIILNIGRMHRLEYFPKPNEFTLENFEKNVPYRYFQPFGFGPRGCAGKYIAMVMMKVVLVTLLRRFQVKTLQKRCIENIPKKNDLSLHPNEDRHLVEIIFSPRNSDKYLQQ
binding [13]: binds
binding [14]: no binding

B2: B-cell receptor-associated protein 31 (BAP31/BCAP31) (protein, UniProt P51572 1-246)
chain: MSLQWTAVATFLYAEVFVVLLLCIPFISPKRWQKIFKSRLVELLVSYGNTFFVVLIVILVLLVIDAVREIRKYDDVTEKVNLQNNPGAMEHFHMKLFRAQRNLYIAGFSLLLSFLLRRLVTLISQQATLLASNEAFKKQAESASEAAKKYMEENDQLKKGAAVDGGKLDVGNAEVKLEEENRSLKADLQKLKDELASTKQKLEKAENQVLAMRKQSEGLTKEYDRLLEEHAKLQAAVDGPMDKKEE
binding [1]: binds
binding [19]: binds
